Experimental data reported in the supplement of paper PMC4604168 (melanoma cell lines).
The list shows a part of the results. Repeats are few or missing, and single values can be far off.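 Imaging used 1,536-well plates; nuclei positive for cleaved PARP by antibody were divided by total DNA-stained nuclei to yield the apoptosis fraction. Doses for screening kept most cells viable, and cell lines differ markedly in resting and induced cleaved-PARP levels.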

Tests used:
Assay in all cases: cleaved PARP positive nuclei fraction relative to DMSO control; melanoma cells; higher = more apoptosis
Conditions in all cases: library dose: low library concentration; 72 h
[1] = test system: 501Mel
[2] = test system: A101D
[3] = test system: A2058
[4] = test system: A375
[5] = test system: C32
[6] = test system: CBRC008 (line from a melanoma biopsy)
[7] = test system: CBRC013 (line from a melanoma biopsy)
[8] = test system: CBRC014 (line from a melanoma biopsy)
[9] = test system: CBRC016 (line from a melanoma biopsy)
[10] = test system: CBRC017 (line from a melanoma biopsy)
[11] = test system: COLO792
[12] = test system: COLO800
[13] = test system: COLO829
[14] = test system: G361
[15] = test system: IPC-298
[16] = test system: IST-MEL1
[17] = test system: LB2518-MEL
[18] = test system: LOXIMVI
[19] = test system: MEL-HO

SMILES: Nc1ccn([C@@H]2O[C@H](CO)[C@@H](O)C2(F)F)c(=O)n1 [gemcitabine] + O=C(O)c1ccc(-c2c[nH]c3ncc(-c4ccccc4)cc23)cc1C1CCCC1 [GSK650394] (first compound 0.0004 µM, partner dose 0.16 µM)
- cleaved PARP positive nuclei fraction [1]: 75.1%
- cleaved PARP positive nuclei fraction [2]: 44.1%
- cleaved PARP positive nuclei fraction [3]: 64.2%
- cleaved PARP positive nuclei fraction [4]: 36%
- cleaved PARP positive nuclei fraction [5]: 7.72%
- cleaved PARP positive nuclei fraction [6]: 427%
- cleaved PARP positive nuclei fraction [7]: 74.1%
- cleaved PARP positive nuclei fraction [8]: 151%
- cleaved PARP positive nuclei fraction [9]: 283%
- cleaved PARP positive nuclei fraction [10]: 116%
- cleaved PARP positive nuclei fraction [11]: 297%
- cleaved PARP positive nuclei fraction [12]: 79.6%
- cleaved PARP positive nuclei fraction [13]: 204%
- cleaved PARP positive nuclei fraction [14]: 50.1%
- cleaved PARP positive nuclei fraction [15]: 90.4%
- cleaved PARP positive nuclei fraction [16]: 42%
- cleaved PARP positive nuclei fraction [17]: 90.5%
- cleaved PARP positive nuclei fraction [18]: 109%
- cleaved PARP positive nuclei fraction [19]: 163%

SMILES: C[C@@H](Oc1cc(-c2cnn(C3CCNCC3)c2)cnc1N)c1c(Cl)ccc(F)c1Cl [Crizotinib] + CC(C)(C)c1cnc(CSc2cnc(NC(=O)C3CCNCC3)s2)o1 [SNS-032] (first compound 0.2 µM, partner dose 0.01 µM)
- cleaved PARP positive nuclei fraction [1]: 83.2%
- cleaved PARP positive nuclei fraction [2]: 177%
- cleaved PARP positive nuclei fraction [3]: 117%
- cleaved PARP positive nuclei fraction [4]: 186%
- cleaved PARP positive nuclei fraction [5]: 120%
- cleaved PARP positive nuclei fraction [6]: 137%
- cleaved PARP positive nuclei fraction [7]: 151%
- cleaved PARP positive nuclei fraction [8]: 71.3%
- cleaved PARP positive nuclei fraction [9]: 202%
- cleaved PARP positive nuclei fraction [10]: 90.2%
- cleaved PARP positive nuclei fraction [11]: 178%
- cleaved PARP positive nuclei fraction [12]: 58.7%
- cleaved PARP positive nuclei fraction [13]: 150%
- cleaved PARP positive nuclei fraction [14]: 95.5%
- cleaved PARP positive nuclei fraction [15]: 42.5%
- cleaved PARP positive nuclei fraction [16]: 643%
- cleaved PARP positive nuclei fraction [17]: 57.7%
- cleaved PARP positive nuclei fraction [18]: 840%
- cleaved PARP positive nuclei fraction [19]: 281%

SMILES: Nc1ccn([C@@H]2O[C@H](CO)[C@@H](O)C2(F)F)c(=O)n1 [gemcitabine] + Cn1cncc1[C@@](N)(c1ccc(Cl)cc1)c1ccc2c(c1)c(-c1cccc(Cl)c1)cc(=O)n2C [tipifarnib] (first compound 0.0004 µM, partner dose 0.01 µM)
- cleaved PARP positive nuclei fraction [1]: 84.7%
- cleaved PARP positive nuclei fraction [2]: 76.5%
- cleaved PARP positive nuclei fraction [3]: 81.6%
- cleaved PARP positive nuclei fraction [4]: 72.2%
- cleaved PARP positive nuclei fraction [5]: 148%
- cleaved PARP positive nuclei fraction [6]: 308%
- cleaved PARP positive nuclei fraction [7]: 122%
- cleaved PARP positive nuclei fraction [8]: 192%
- cleaved PARP positive nuclei fraction [9]: 158%
- cleaved PARP positive nuclei fraction [10]: 142%
- cleaved PARP positive nuclei fraction [11]: 63.9%
- cleaved PARP positive nuclei fraction [12]: 107%
- cleaved PARP positive nuclei fraction [13]: 232%
- cleaved PARP positive nuclei fraction [14]: 132%
- cleaved PARP positive nuclei fraction [15]: 52.5%
- cleaved PARP positive nuclei fraction [16]: 126%
- cleaved PARP positive nuclei fraction [17]: 52%
- cleaved PARP positive nuclei fraction [18]: 170%
- cleaved PARP positive nuclei fraction [19]: 84.1%

SMILES: Nc1ncn([C@H]2C[C@H](O)[C@@H](CO)O2)c(=O)n1 [decitabine] + COc1cc(Nc2ncc(F)c(Nc3ccc4c(n3)NC(=O)C(C)(C)O4)n2)cc(OC)c1OC [Tamatinib] (first compound 0.1 µM, partner dose 0.4 µM)
- cleaved PARP positive nuclei fraction [1]: 90.2%
- cleaved PARP positive nuclei fraction [2]: 44.8%
- cleaved PARP positive nuclei fraction [3]: 85%
- cleaved PARP positive nuclei fraction [4]: 77.9%
- cleaved PARP positive nuclei fraction [5]: 142%
- cleaved PARP positive nuclei fraction [6]: 275%
- cleaved PARP positive nuclei fraction [7]: 108%
- cleaved PARP positive nuclei fraction [8]: 85.5%
- cleaved PARP positive nuclei fraction [9]: 56.2%
- cleaved PARP positive nuclei fraction [10]: 165%
- cleaved PARP positive nuclei fraction [11]: 368%
- cleaved PARP positive nuclei fraction [12]: 177%
- cleaved PARP positive nuclei fraction [13]: 130%
- cleaved PARP positive nuclei fraction [14]: 34.4%
- cleaved PARP positive nuclei fraction [15]: 138%
- cleaved PARP positive nuclei fraction [16]: 185%
- cleaved PARP positive nuclei fraction [17]: 151%
- cleaved PARP positive nuclei fraction [18]: 278%
- cleaved PARP positive nuclei fraction [19]: 86.3%

SMILES: Nc1ccn([C@@H]2O[C@H](CO)[C@@H](O)C2(F)F)c(=O)n1 [gemcitabine] + COc1cc2c(Oc3ccc4[nH]c(C)cc4c3F)ncnc2cc1OCCCN1CCCC1 [cediranib] (first compound 0.0004 µM, partner dose 0.4 µM)
- cleaved PARP positive nuclei fraction [1]: 227%
- cleaved PARP positive nuclei fraction [2]: 70.9%
- cleaved PARP positive nuclei fraction [3]: 47.4%
- cleaved PARP positive nuclei fraction [4]: 166%
- cleaved PARP positive nuclei fraction [5]: 32.2%
- cleaved PARP positive nuclei fraction [6]: 73.9%
- cleaved PARP positive nuclei fraction [7]: 113%
- cleaved PARP positive nuclei fraction [8]: 111%
- cleaved PARP positive nuclei fraction [9]: 383%
- cleaved PARP positive nuclei fraction [10]: 169%
- cleaved PARP positive nuclei fraction [11]: 18.6%
- cleaved PARP positive nuclei fraction [12]: 92.3%
- cleaved PARP positive nuclei fraction [13]: 144%
- cleaved PARP positive nuclei fraction [14]: 89.8%
- cleaved PARP positive nuclei fraction [15]: 141%
- cleaved PARP positive nuclei fraction [16]: 237%
- cleaved PARP positive nuclei fraction [17]: 54.8%
- cleaved PARP positive nuclei fraction [18]: 737%
- cleaved PARP positive nuclei fraction [19]: 88.1%

SMILES: CNC(=O)c1cc(Oc2ccc(NC(=O)Nc3ccc(Cl)c(C(F)(F)F)c3)cc2)ccn1 [sorafenib] + CN(C)S(=O)(=O)c1ccc2c(c1)/C(=C/c1cc3c([nH]1)CCCC3)C(=O)N2 [SU6656] (first compound 0.4 µM, partner dose 0.4 µM)
- cleaved PARP positive nuclei fraction [1]: 110%
- cleaved PARP positive nuclei fraction [2]: 90.2%
- cleaved PARP positive nuclei fraction [3]: 28.7%
- cleaved PARP positive nuclei fraction [4]: 148%
- cleaved PARP positive nuclei fraction [5]: 77.4%
- cleaved PARP positive nuclei fraction [6]: 174%
- cleaved PARP positive nuclei fraction [7]: 72.7%
- cleaved PARP positive nuclei fraction [8]: 93.7%
- cleaved PARP positive nuclei fraction [9]: 29.5%
- cleaved PARP positive nuclei fraction [10]: 88.8%
- cleaved PARP positive nuclei fraction [11]: 37%
- cleaved PARP positive nuclei fraction [12]: 56.4%
- cleaved PARP positive nuclei fraction [13]: 205%
- cleaved PARP positive nuclei fraction [14]: 52.7%
- cleaved PARP positive nuclei fraction [15]: 91.5%
- cleaved PARP positive nuclei fraction [16]: 99%
- cleaved PARP positive nuclei fraction [17]: 57%
- cleaved PARP positive nuclei fraction [18]: 124%
- cleaved PARP positive nuclei fraction [19]: 79.9%

SMILES: C=C(c1ccc(C(=O)O)cc1)c1cc2c(cc1C)C(C)(C)CCC2(C)C [Bexarotene] + C=CCn1c(=O)c2cnc(Nc3ccc(N4CCN(C)CC4)cc3)nc2n1-c1cccc(C(C)(C)O)n1 [MK1775] (first compound 2 µM, partner dose 0.02 µM)
- cleaved PARP positive nuclei fraction [1]: 154%
- cleaved PARP positive nuclei fraction [2]: 44.7%
- cleaved PARP positive nuclei fraction [3]: 96.6%
- cleaved PARP positive nuclei fraction [4]: 365%
- cleaved PARP positive nuclei fraction [5]: 64.6%
- cleaved PARP positive nuclei fraction [6]: 271%
- cleaved PARP positive nuclei fraction [7]: 74.6%
- cleaved PARP positive nuclei fraction [8]: 146%
- cleaved PARP positive nuclei fraction [9]: 883%
- cleaved PARP positive nuclei fraction [10]: 481%
- cleaved PARP positive nuclei fraction [11]: 61.9%
- cleaved PARP positive nuclei fraction [12]: 109%
- cleaved PARP positive nuclei fraction [13]: 107%
- cleaved PARP positive nuclei fraction [14]: 118%
- cleaved PARP positive nuclei fraction [15]: 48.9%
- cleaved PARP positive nuclei fraction [16]: 68%
- cleaved PARP positive nuclei fraction [17]: 123%
- cleaved PARP positive nuclei fraction [18]: 38.2%
- cleaved PARP positive nuclei fraction [19]: 263%
